Source: publication PMC8770127
No constants are given. Whether binding was seen depends on the method and setting. Binding seen in cells or lysates may run through a third protein. Some binding calls cover weakened binding; strength is not graded here.

The chains behind the UniProt entries cited, without tags or fusion partners.
UniProt P10275: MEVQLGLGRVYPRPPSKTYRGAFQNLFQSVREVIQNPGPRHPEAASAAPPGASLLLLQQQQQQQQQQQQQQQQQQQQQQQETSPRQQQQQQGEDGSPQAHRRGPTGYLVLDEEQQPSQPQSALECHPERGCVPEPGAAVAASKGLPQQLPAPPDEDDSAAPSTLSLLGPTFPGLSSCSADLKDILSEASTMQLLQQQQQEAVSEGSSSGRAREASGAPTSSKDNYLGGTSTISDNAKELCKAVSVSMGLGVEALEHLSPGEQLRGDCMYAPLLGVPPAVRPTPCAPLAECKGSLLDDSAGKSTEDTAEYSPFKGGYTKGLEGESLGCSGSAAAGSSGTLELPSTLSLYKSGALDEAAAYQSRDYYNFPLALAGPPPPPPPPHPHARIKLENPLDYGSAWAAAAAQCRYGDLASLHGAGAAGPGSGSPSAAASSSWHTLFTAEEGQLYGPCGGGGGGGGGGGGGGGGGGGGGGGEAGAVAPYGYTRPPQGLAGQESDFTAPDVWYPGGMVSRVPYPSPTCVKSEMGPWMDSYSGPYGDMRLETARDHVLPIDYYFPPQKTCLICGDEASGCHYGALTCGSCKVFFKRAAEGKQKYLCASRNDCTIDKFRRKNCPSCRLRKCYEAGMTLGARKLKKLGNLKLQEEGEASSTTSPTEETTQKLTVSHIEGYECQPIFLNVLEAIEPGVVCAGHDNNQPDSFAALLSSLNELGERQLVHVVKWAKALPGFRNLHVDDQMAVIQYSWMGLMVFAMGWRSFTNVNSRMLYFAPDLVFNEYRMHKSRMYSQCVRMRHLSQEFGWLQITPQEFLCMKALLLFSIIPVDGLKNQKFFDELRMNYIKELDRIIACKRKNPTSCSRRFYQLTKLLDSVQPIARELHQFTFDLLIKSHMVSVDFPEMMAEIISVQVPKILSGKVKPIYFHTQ
UniProt Q92922: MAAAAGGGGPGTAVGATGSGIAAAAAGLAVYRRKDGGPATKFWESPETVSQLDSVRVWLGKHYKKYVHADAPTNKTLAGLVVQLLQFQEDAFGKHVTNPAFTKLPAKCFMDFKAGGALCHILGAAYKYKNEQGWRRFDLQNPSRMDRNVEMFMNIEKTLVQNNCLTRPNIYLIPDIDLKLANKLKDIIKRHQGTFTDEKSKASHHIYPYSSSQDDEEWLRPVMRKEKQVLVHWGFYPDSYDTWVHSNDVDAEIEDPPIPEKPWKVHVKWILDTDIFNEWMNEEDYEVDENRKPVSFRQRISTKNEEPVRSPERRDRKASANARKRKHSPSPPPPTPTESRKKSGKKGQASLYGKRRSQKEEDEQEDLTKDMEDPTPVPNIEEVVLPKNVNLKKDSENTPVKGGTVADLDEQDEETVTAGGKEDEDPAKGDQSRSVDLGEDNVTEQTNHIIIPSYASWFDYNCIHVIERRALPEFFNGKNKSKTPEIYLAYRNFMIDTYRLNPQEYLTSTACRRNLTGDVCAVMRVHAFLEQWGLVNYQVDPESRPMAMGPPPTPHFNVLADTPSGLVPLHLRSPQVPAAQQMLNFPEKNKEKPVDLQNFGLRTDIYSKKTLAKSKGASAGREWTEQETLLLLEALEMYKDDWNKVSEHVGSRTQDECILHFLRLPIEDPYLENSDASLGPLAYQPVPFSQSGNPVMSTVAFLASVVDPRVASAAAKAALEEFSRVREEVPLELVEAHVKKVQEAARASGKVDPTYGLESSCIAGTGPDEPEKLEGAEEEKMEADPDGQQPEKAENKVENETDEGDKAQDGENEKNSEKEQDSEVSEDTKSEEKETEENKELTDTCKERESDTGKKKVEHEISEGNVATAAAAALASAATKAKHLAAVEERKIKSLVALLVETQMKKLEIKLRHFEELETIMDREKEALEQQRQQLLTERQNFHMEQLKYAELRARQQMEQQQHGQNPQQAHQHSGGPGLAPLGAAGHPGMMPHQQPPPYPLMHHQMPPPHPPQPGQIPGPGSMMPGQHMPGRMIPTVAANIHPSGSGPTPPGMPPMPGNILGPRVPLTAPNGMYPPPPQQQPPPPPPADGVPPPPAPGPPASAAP

Key:
[1] = target: T1, Forkhead box A1 (human (endogenous in LNCaP and VCaP)) (UniProt P55317); test: co-IP; reciprocal nuclear co-IP with AR, FOXA1, ERG or SMARCC1 antibodies, 600 ug nuclear extract of VCaP and LNCaP cells after DHT stimulation (10 nM, 3h), immunoblot
T1 sequence: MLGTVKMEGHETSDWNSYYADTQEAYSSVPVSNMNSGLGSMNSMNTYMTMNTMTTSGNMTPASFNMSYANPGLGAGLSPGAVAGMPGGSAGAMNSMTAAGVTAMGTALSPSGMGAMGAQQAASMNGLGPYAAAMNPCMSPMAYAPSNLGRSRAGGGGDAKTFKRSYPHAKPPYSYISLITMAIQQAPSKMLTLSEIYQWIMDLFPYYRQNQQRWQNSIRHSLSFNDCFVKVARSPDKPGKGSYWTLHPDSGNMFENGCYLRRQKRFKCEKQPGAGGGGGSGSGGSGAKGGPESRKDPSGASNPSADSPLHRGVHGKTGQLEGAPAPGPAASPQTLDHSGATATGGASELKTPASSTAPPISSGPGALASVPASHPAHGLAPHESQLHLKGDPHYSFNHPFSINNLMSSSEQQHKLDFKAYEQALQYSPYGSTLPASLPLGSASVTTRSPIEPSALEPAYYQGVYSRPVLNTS

[2] = target: Androgen receptor (human (endogenous in LNCaP and VCaP)) (UniProt P10275); test: as above

For SMARCC1 (from UniProt Q92922 1-1105), the binding [1] was “binds” and the binding [2] was “binds”.
